In PMC9977783, “Ligand-specific changes in conformational flexibility mediate long-range allostery in the lac repressor” (Nature Communications, 2021):
For some assays here: Negatives hold for the conditions tested. For some assays here: The exact form of at least one protein or probe is not confirmed. For some assays here: A weaker result is weaker than the reference pair of the same experiment.

Amino acid sequences for entries named in this document (tags omitted). Residues count along the entry.
UniProt P03023, 1-331: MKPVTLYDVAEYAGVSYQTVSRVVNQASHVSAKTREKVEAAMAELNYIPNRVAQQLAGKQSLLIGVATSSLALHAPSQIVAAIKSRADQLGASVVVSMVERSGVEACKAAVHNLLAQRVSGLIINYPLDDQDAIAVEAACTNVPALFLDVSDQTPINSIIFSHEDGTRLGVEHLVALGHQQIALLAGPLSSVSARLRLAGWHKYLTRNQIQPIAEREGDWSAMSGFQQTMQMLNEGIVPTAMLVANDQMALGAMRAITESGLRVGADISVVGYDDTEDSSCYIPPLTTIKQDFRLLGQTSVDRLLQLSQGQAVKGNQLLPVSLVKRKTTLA

Experiments:
[1] = target: LacI dimeric (lac repressor, tetramerization domain removed) (Escherichia coli) (UniProt P03023); test: BLI; settings: IPTG, LacI 0-40 nM, BLI: PBS with 0.2% BSA, 0.05% Tween-20, pH 8.0, room temperature, global 1:1 kinetic fit, recombinant protein, residues 1-331, label: 5'-biotin on forward strand
[2] = target: LacI dimeric (lac repressor, tetramerization domain removed) (Escherichia coli) (UniProt P03023); test: HDX/MS; settings: IPTG, expected about 50% DNA-bound; HDX/MS: 50 mM MOPS, 200 mM NaCl, 0.5 mM TCEP, pH 7.0, equilibrated at 4 C; recombinant protein; residues 1-331

Row | Sequence | binding result [1] | binding result [2]
1 | AGTAGTGGAATTGTGAGCGGATAACAATTGACATTGTGAGCGGATAACAAGATACTGAGCACATCAGC (double strand) [Olac (LacO1 natural operator, BLI)] | no binding | –
2 | AGTAGTGGAATTGTGAGCGGATAACAATTGACATTGTGAGCGGATAACAAGATACTGAGCACATCAGC (double strand) [Olac (LacO1, 68 bp, HDX/MS)] | – | binds more weakly
